Assay results taken from the supplement of paper PMC7125110.
± gives the standard error. Many entries were measured with a wide error.

B1: glmS ribozyme (parent)
chain: AUAAAAGCGCCAGAACUACAGAAAUGUAGUUGACGAGGAGGAGGUUUAUCGAAUUUUCGGCGGAUGCCUCCAAA

Variants of: B1
Assay: self-cleavage kobs at 40 uM GlcN6P; higher = faster cleavage; RNA array
Conditions: with glucosamine-6-phosphate
Summary of the method: (§1)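 Tiles of sequenced MiSeq chips were imaged over ~14 h at 37 °C. On them, barcoded ribozyme variants had been transcribed in situ by E. coli RNA polymerase and were tracked via a hybridised Cy3 probe while glucosamine-6-phosphate (40 μM to 10 mM) in HEPES/KCl/Mg(OAc)2 buffer flowed in. Per-tile medians, normalised to baseline and to non-cleaving reference variants, were fit to one- or two-exponential decays for kobs, and weighted Michaelis–Menten fits gave kcat and KM.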

Variant	self-cleavage kobs at 40 uM GlcN6P [s⁻¹]
C11A G37C U57A C67G	3.02e-05 ± 2.9e-05
C11U U69A	2.84e-05 ± 1.5e-05
C11U U69C	3.1e-05 ± 1.9e-05
G13U U31C C70U	2.98e-05 ± 2.1e-05
C10A C58G G60A U69G	3.02e-05 ± 1.5e-05
G63U U69G	1.85e-05 ± 1.8e-05
U31G G38U U69A C71U	3.2e-05 ± 2.3e-05
G37C C50G	2.23e-05 ± 1.4e-05
C11A A12C U57G C67G	3.23e-05 ± 2.2e-05
C61U C68G	2.92e-05 ± 1.5e-05
C11A U49C A52G C67G	3e-05 ± 2.8e-05
A39U G66U C67A	2.17e-05 ± 1.7e-05
G13U A53U	1.76e-05 ± 9.6e-06
A15C A42G U47G A53G	1.68e-05 ± 1.4e-05
G29U C50G A64C	2.47e-05 ± 2.4e-05
A39G A52G	2.35e-05 ± 1.4e-05
G29U C34A G37U C67G	3.84e-05 ± 2.3e-05
C16A A42G C68G C70U	3.8e-05 ± 2.2e-05
A53C U65G	1.24e-05 ± 1.2e-05
C50G A64U	3.01e-05 ± 2e-05
A14U U47G U69A	2.68e-05 ± 2.1e-05
U30A G38U U69A	2.89e-05 ± 2.1e-05
G7A G9A A53G G60A U65A C67A	8.38e-05 ± 4.3e-05
A52G C70U C71G	2.66e-05 ± 2e-05
U57G C58G U65A C68A	3.24e-05 ± 1.8e-05
G32A C71A	2.12e-05 ± 1.5e-05
G29C A36C C70A	4.12e-05 ± 2.5e-05
G60A C68G	2.19e-05 ± 1.5e-05
C11U U69C C70G	3.69e-05 ± 1.9e-05

Part of the list above, set out differently:

| Variant | self-cleavage kobs at 40 uM GlcN6P [s⁻¹] |
| --- | --- |
| C11A G37C U57A C67G | 3.02e-05 ± 2.9e-05 |
| G13U U31C C70U | 2.98e-05 ± 2.1e-05 |
| C10A C58G G60A U69G | 3.02e-05 ± 1.5e-05 |
| G37C C50G | 2.23e-05 ± 1.4e-05 |
| C11A A12C U57G C67G | 3.23e-05 ± 2.2e-05 |
| A39U G66U C67A | 2.17e-05 ± 1.7e-05 |
| G13U A53U | 1.76e-05 ± 9.6e-06 |
| A39G A52G | 2.35e-05 ± 1.4e-05 |
| C50G A64U | 3.01e-05 ± 2e-05 |
| U30A G38U U69A | 2.89e-05 ± 2.1e-05 |
| G32A C71A | 2.12e-05 ± 1.5e-05 |

Variants of: B1
Assay: self-cleavage kobs at 10000 uM GlcN6P; higher = faster cleavage; RNA array
Conditions: with glucosamine-6-phosphate
Summary of the method: as §1

Variant	self-cleavage kobs at 10000 uM GlcN6P [s⁻¹]
C11A G37C U57A C67G	5.19e-05 ± 2.7e-05
G37C C50G	1.53e-05 ± 1.5e-05
C61U C68G	1.68e-05 ± 1.3e-05
G7U C50G	0.000474 ± 0.00032
G29U C50G A64C	2.56e-05 ± 1.9e-05
U30A G38U U69A	2.37e-05 ± 1.9e-05
U57G C58G U65A C68A	2.23e-05 ± 1.9e-05
G60A C68G	1.51e-05 ± 1.2e-05
C11U U69C C70G	1.97e-05 ± 1.9e-05

Variants of: B1
Assay: self-cleavage kobs at 2500 uM GlcN6P; higher = faster cleavage; RNA array
Conditions: with glucosamine-6-phosphate
Summary of the method: as §1

Variant	self-cleavage kobs at 2500 uM GlcN6P [s⁻¹]
G63U U69G	2.83e-05 ± 1.5e-05
C10A U30A C68U	6.4e-05 ± 3.6e-05

Variants of: B1
Assay: self-cleavage kobs at 640 uM GlcN6P; higher = faster cleavage; RNA array
Conditions: with glucosamine-6-phosphate
Summary of the method: as §1

Variant	self-cleavage kobs at 640 uM GlcN6P [s⁻¹]
C10A C34A A53U U69G	6.12e-05 ± 4.1e-05
A6G C71U	1.85e-05 ± 1.4e-05
C10A A15G G38U G63U U69G	4.3e-05 ± 2.6e-05
G7U C50G	2.74e-05 ± 1.6e-05
C10A A53U G60U	1.98e-05 ± 1.3e-05
C10A U30A C68U	6.78e-05 ± 4e-05
A52G C70U C71G	5.29e-05 ± 2.8e-05
G7U U47G C50U	3.97e-05 ± 3e-05
